# Experimental data from article PMC12040169 (PLOS Biology, 2025).
# The other results are listed elsewhere or left out.
# Tested on: T1, CTL2-GFP (C. trachomatis L2/434/Bu, GFP-expressing)
# T1 construct: L2/434/Bu, GFP-expressing
# Design: species or system HeLa; Intracellular C. trachomatis growth in HeLa cells, bulk GFP fluorescence relative to DMSO
# Conditions: bulk GFP, single well; 28.5 h, 10 µM; inhibitor
row,SMILES,% of control remaining [%]
1,O=C(Nc1nc(OCCN2CCCC2=O)cnc1/C=C\c1ccccc1)c1cc2ccccc2s1 [CBK145380],65.1972
2,CS(=O)(=O)N(CC(=O)NCc1ccccn1)c1ccc(I)cc1 [CBK265369],133.332
3,c1ccc(C(NCc2cnc(-c3cnccn3)s2)C2CCC2)cc1 (stereo not shown) [CBK304016],105.507
4,Cc1c(C(=O)O)sc2nc(C=Cc3ccc(OCCC(C)C)cc3)[nH]c(=O)c12 [CBK297539],123.255
5,CC(C)(O)C#Cc1ccccc1C(=O)NC(Cc1c[nH]c2ccccc12)C(=O)O (stereo not shown) [CBK267701],165.521
6,Brc1cccc(OCc2cccs2)c1 [CBK176011],83.6047
7,O=C(O)CNS(=O)(=O)c1ccc2ccccc2c1 [CBK034460],166.967
8,O=C(c1ccc(-c2cncc(-c3cc4ccccc4[nH]3)c2)cc1)N1CCOCC1 [CBK158419T],98.6655
9,Cn1c(SCCN2CCOCC2)nnc1-c1cccs1 [CBK010243],118.18
10,O=C(O)CNC(=O)/C(=C\c1ccco1)NC(=O)c1ccccc1Cl [CBK263967],109.6
11,COc1nccc(N2CCN(C)C3(CCNC(=O)CC3)C2)c1C#N (stereo not shown) [CBK307676],136.236
12,O=C1/C(=C/c2ccccc2)S/C(=N/N=C/c2ccccc2)N1c1ccc(O)cc1 [CBK262803],126.479
13,Cc1c(C)n(CC(=O)O)c2ccccc12 [CBK000884],91.0701
14,O=S1(=O)N=C(Nc2ccc(S(=O)(=O)N3CCOCC3)cc2)c2ccccc21 [CBK269116],110.039
15,Cc1cc(OC(C)C(=O)Nc2ncccc2C)ccc1Cl (stereo not shown) [CBK269637],152.487
16,CCC1CN(c2cc(CO)c(F)cn2)CC2(CCOC2)O1 (stereo not shown) [CBK304757],151.882
17,Cc1cc(C)n(CCCC(=O)N2CCC3(CCCO3)CC2)n1 [CBK304397],104.944
18,c1ccc2oc(NC3=NCN(Cc4ccc5c(c4)OCO5)CN3)nc2c1 [CBK267964],107.624
19,Cc1ccc(CN2CC[C@@H]3[C@H](C2)[C@@H](c2ccsc2)CN3C(=O)c2ccccc2F)cc1 [CBK285658],78.6749
20,CC(=O)Nc1cccc(OCC(=O)Nc2ccc(C)c(C)c2)c1 [CBK265429],106.534
21,COC(=O)c1sc2cc(C(F)(F)F)cnc2c1NC(=O)C1COc2ccccc2O1 (stereo not shown) [CBK115865],101.448
22,COc1ccc(C2(C(=O)N3CCN(C)CC3)CC2)cc1 [CBK149837],113.912
23,COc1ccc2c(c1)c(C(C(=O)O)N1CCN(c3ccccn3)CC1)cn2CC(=O)O (stereo not shown) [CBK286637],104.517
24,CCOCCN(CCOCC)c1nnc2ccc(Cl)nn12 [CBK010024],134.104
25,COc1cc(C(=O)N2CCC3(CC2)CC(=O)c2cc(C)c(C)cc2O3)ccc1C [CBK164202],147.735
26,Cc1cc(-c2ccccc2)nn(CCN2CCOCC2)c1=O [CBK023022C],125.154
27,COc1ccc(C2(C(=O)NCCc3ccc(O)cc3)CC2)cc1 [CBK149833],109.47

row,SMILES,% of control remaining [%]
1,Nc1nc(N)c2cc(C(F)(F)F)ccc2n1 [CBK025934],33.3196
2,O=C(Nc1cc(-c2nc3ncccc3o2)ccc1Cl)c1ccc(-c2ccccc2[N+](=O)[O-])o1 [CBK264097],100
3,C[C@@H](Nc1nccnc1-c1cccnc1)c1ccccc1 [CBK036759],87.8774
4,N=C1NC(=O)/C(=C\c2ccc(-c3ccc(Br)cc3)o2)S1 [CBK261409],97.232
5,O=C1Nc2ccccc2C(O)(C(=O)NCc2ccccc2)N1c1ccccc1 (stereo not shown) [CBK288555],94.96
6,O=C(O)CCCN1C(=O)C(O)=C(C(=O)c2ccccc2)C1c1ccccc1 (stereo not shown) [CBK262924],134.391
7,COc1cccc(C(=O)NCCC(=O)N2CCN(C)CC2)c1 [CBK304663],97.2783
8,O=C(Cn1ncn2c(cc3ccsc32)c1=O)NCc1cccs1 [CBK284197],74.7233
9,CCc1noc(C)c1C(=O)NCC1CCCCN1CC (stereo not shown) [CBK282201],114.743
10,O=C(c1ccccc1)N1CCN(Cc2cc(=O)n3ccsc3n2)CC1 [CBK306095],121.295
11,Cc1cc(C2CCCCCN2C(=O)c2c(Cl)cnn2C)on1 (stereo not shown) [CBK283045],89.7747
12,CN1CCN(C(=O)CSc2nnc(COc3ccccc3)o2)CC1 [CBK268970],144.601
13,Cc1cc(C(=O)N2CCn3cnnc3C2)c(C2CC2)o1 [CBK282059],92.4311
14,O=[N+]([O-])c1ccc(S(=O)(=O)Nc2cccc3[nH]ccc23)cc1 [CBK159550],78.7569
15,Cc1ccc(-c2nnc(CNC(=O)c3cccc(-c4ccc(F)cc4)c3)o2)s1 [CBK286300],91.9443
16,Cc1ccc(C)n1-c1ccc(C(=O)OCC(=O)c2cccc([N+](=O)[O-])c2)cc1 [CBK264427],105.936
17,COCc1cc(=O)oc2cc(NS(C)(=O)=O)ccc12 [CBK008516],141.816
18,Cc1cc(C)nc(NC(=O)C2C3C=CC(C3)C2C(=O)O)c1 (stereo not shown) [CBK058843],83.7912
19,COc1ccc(NS(=O)(=O)c2ccc(N3CCCC3=O)cc2)cn1 [CBK270216],129.593
20,Cc1cc(/C=C(/C#N)c2nc3ccccc3[nH]2)c(C)n1-c1ccc(S(N)(=O)=O)cc1 [CBK264769],100
21,Cc1nc2ccc(NC(=O)CC3CCN(C(=O)CC4CCCCC4)CC3)cc2[nH]1 [CBK285967],142.003
22,CCN(Cc1cn2cccc(C(=O)OC)c2n1)CC1CCOC1 (stereo not shown) [CBK304880],103.742
23,CC(C(=O)NCCn1nc(-c2ccco2)ccc1=O)c1ccccc1 (stereo not shown) [CBK283861],124.35
24,CN(c1ncc(Br)cc1C(=O)NC1CCCCC1)S(C)(=O)=O [CBK076531],103.983
25,Cn1cncc1C(=O)NC1CCCC1 [CBK200256],93.406
26,COc1cccc(-n2cnc3cccc(N)c32)c1 [CBK022114],134.897
27,Nc1ncnc2[nH]c(SCc3nc4ccc(I)cc4c(=O)n3-c3ccccc3)nc12 [CBK267174],113.526

row,SMILES,% of control remaining [%]
1,N=C1NC(=O)/C(=C/c2cccc(OCCOc3ccc(C4CCCCC4)cc3)c2)S1 [CBK263956],100
2,O=C(NCc1ccco1)c1cc(S(=O)(=O)N2CCOCC2)ccc1Br [CBK269907],158.656
3,O=C(CC(C(=O)O)n1cccn1)c1ccc(Br)cc1 (stereo not shown) [CBK269541],145.179
4,Cc1cc(C)n(CCC(=O)NCC(c2ccccn2)N2CCOCC2)n1 (stereo not shown) [CBK307396],130.173
5,CCOC(=O)Cn1c(C)nc(C)cc1=O [CBK012419],129.782
6,Cn1c(=O)n(C)c2cc(S(=O)(=O)NCCC(=O)O)ccc21 [CBK267565],118.75
7,COCC(=O)N1c2ccccc2CC[C@@H]1C(=O)OC [CBK285472],131.259
8,CC(C)(C)OC(=O)NC(C)(C)C(=O)N1CC(C(=O)O)C(c2cc3ccccc3o2)C1 (stereo not shown) [CBK003236],102.502
9,CCCC(=O)Nc1ccc2c(c1)nc1n2CCN(Cc2ccccc2)C1 [CBK267129],110.206
10,CCNC(=S)N(CCc1ccccc1)C1CC(=O)N(c2ccc(F)cc2)C1=O (stereo not shown) [CBK262941],91.4344
11,Cc1onc(-c2ccccc2)c1CNC(=O)/C=C/c1ccc2c(c1)OCO2 [CBK144085],123.975
12,O=C(c1ccccn1)N(CCc1ccccc1)c1nc2ccccc2s1 [CBK295151],102.696
13,CCCC(C(=O)NC(C)(C)CN1CCCCC1)n1nc(C)cc1C (stereo not shown) [CBK282061],136.444
14,CCCS(=O)(=O)c1ccc(NC(=O)Nc2ccc(Cl)cc2Cl)cc1 [CBK008564],53.3975
15,CCOC(=O)c1c(-c2ccc(Cl)cc2)csc1NC(=O)CCCC(=O)O [CBK296929],115.757
16,O=C(CN1CCN(c2ccc([N+](=O)[O-])cn2)CC1)Nc1ccc2c(c1)OCO2 [CBK074679],93.9118
17,Cn1c2ccccc2c2nnc(SCCCC(=O)c3ccc(F)cc3)nc21 [CBK268830],134.989
18,O=C1C(C2CCN(Cc3ccc4ncccc4c3)CC2)CC=CCN1Cc1ccccc1 (stereo not shown) [CBK286269],112.543
19,NC(Cc1ccccc1)CN(CC1(c2ccc(Cl)cc2)CC1)C(=O)Nc1ccc2c(c1)OCO2 (stereo not shown) [CBK002342C],39.4153
20,CN(CCc1cccnc1)CC(=O)Nc1cccc(Cl)c1 [CBK304108],132.156
21,CC(=O)c1ccc(-c2nccnc2NCc2ccc(C(F)(F)F)cc2)s1 [CBK037983],117.255
22,C[C@H](c1ccccc1)n1c(=O)[nH]c2ncc(-c3cccc(/C=C/C(=O)O)c3)nc21 [CBK064983],88.8093
23,CC(=O)Nc1ccc(S(=O)(=O)Oc2ccc(C3C4=C(CC(C)(C)CC4=O)N=C4c5ccccc5C(=O)C43)cc2)cc1 (stereo not shown) [CBK262964],100
24,CN1CCC(Oc2nc3cc(Cl)c(Cl)cc3nc2N2CCCC2)CC1 [CBK115290],122.394
25,CCOc1cc(-c2noc(CCC(=O)N3CCN(C)CC3)n2)ccc1OC [CBK269513],123.126

# In the list so far, these contain a CF3 group.
row,SMILES,% of control remaining [%]
21,COC(=O)c1sc2cc(C(F)(F)F)cnc2c1NC(=O)C1COc2ccccc2O1 (stereo not shown) [CBK115865],101.448
1,Nc1nc(N)c2cc(C(F)(F)F)ccc2n1 [CBK025934],33.3196
21,CC(=O)c1ccc(-c2nccnc2NCc2ccc(C(F)(F)F)cc2)s1 [CBK037983],117.255
